Data published in patent US20120071419A1.
Results are given in words; binding and its absence hold for the method and conditions named. Some results given as binding are weak or reduced against the parent protein; the word gives no strength.

B1: clone 6 of the 1OZJ scaffold (designed binder)
chain: MSSILPFTPPIVKRLLGWKKGEQNGQEEKWCEKAVKSLVKKLKSTGQLDELEKAITTQNVNTKCITIPRSLDGRLQVSHRKGLPHVIYCRLWRWPDLHSHHELRAMGLCSFAFNMKKLEVCVNPYHYQRVETPVLPPVLVPRHT
B2: clone 9 of the 1OZJ scaffold (designed binder)
chain: MSSILPFTPPIVKRLLGWKKGEQNGQEEKWCEKAVKSLVKKLKATGQLDELEKAITTQNVNTKCITIPRSLDGRLQVSHRKGLPHVIYCRLWRWPDLHSHHELRAMQLCIFAFLMKKPEVCVNPYHYQRVETPVLPPVLVPRHT
B3: clone 7 of the 1OZJ scaffold (designed binder)
chain: MSSILPFTPPIVKRLLGWKKGEQNGQEEKWCEKAVKSLVKKLKLTGQLDELEKAITTQNVNTKCITIPRSLDGRLQVSHRKGLPHVIYCRLWRWPDLHSHHELRAMALCAFAFMMKKCEVCVNPYHYQRVETPVLPPVLVPRHT

What follows are binders tested against EGFR (Epidermal Growth Factor Receptor) (human) (UniProt P00533) (assay: phage ELISA on coated EGFR).

binding, binds:
B1
B2
B3
